Source: paper PMC6965176, “Targeting Forward and Reverse EphB4/EFNB2 Signaling by a Peptide with Dual Functions” (Scientific Reports, 2020)
Substitutions are numbered along the chain they refer to. No constants are given. Whether binding was seen depends on the method and setting. Some entries that bind do so weakly or less than the wild type. For some of these results: Where a sequence is shown, tags or fusion partners need not be part of it.

By UniProt entry, the sequences of proteins in these tests, tags left out. Residues count along the entry.
UniProt P52799, residues 28-229: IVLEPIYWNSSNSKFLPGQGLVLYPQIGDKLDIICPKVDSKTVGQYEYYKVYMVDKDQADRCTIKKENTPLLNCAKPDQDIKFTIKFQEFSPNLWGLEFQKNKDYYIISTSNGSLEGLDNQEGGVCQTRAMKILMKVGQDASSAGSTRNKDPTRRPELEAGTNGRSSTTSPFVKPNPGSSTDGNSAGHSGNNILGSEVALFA

B1: EphB1 ectodomain fused with Fc (Fc fusion, UniProt Q8CBF3 18-540)
chain: MEETLMDTRTATAELGWTANPASGWEEVSGYDENLNTIRTYQVCNVFEPNQNNWLLTTFINRRGAHRIYTEMRFTVRDCSSLPNVPGSCKETFNLYYYETDSVIATKKSAFWSEAPYLKVDTIAADESFSQVDFGGRLMKVNTEVRSFGPLTRNGFYLAFQDYGACMSLLSVRVFFKKCPSIVQNFAVFPETMTGAESTSLVIARGTCIPNAEEVDVPIKLYCNGDGEWMVPIGRCTCKPGYEPENSVACKACPAGTFKASQEAEGCSHCPSNSRSPSEASPICTCRTGYYRADFDPPEVACTSVPSGPRNVISIVNETSIILEWHPPRETGGRDDVTYNIICKKCRADRRSCSRCDDNVEFVPRQLGLTECRVSISSLWAHTPYTFDIQAINGVSSKSPFPPQHVSVNITTNQAAPSTVPIMHQVSATMRSITLSWPQPEQPNGIILDYEIRYYEKEHNEFNSSMARSQTNTARIDGLRPGMVYVVQVRARTVAGYGKFSGKMCFQTLTDDDYKSELREQLP
B2: EphB2 ectodomain fused with Fc (Fc fusion, UniProt P54763 19-543)
chain: VEETLMDSTTATAELGWMVHPPSGWEEVSGYDENMNTIRTYQVCNVFESSQNNWLRTKFIRRRGAHRIHVEMKFSVRDCSSIPSVPGSCKETFNLYYYEADFDLATKTFPNWMENPWVKVDTIAADESFSQVDLGGRVMKINTEVRSFGPVSRNGFYLAFQDYGGCMSLIAVRVFYRKCPRIIQNGAIFQETLSGAESTSLVAARGSCIANAEEVDVPIKLYCNGDGEWLVPIGRCMCKAGFEAVENGTVCRGCPSGTFKANQGDEACTHCPINSRTTSEGATNCVCRNGYYRADLDPLDMPCTTIPSAPQAVISSVNETSLMLEWTPPRDSGGREDLVYNIICKSCGSGRGACTRCGDNVQYAPRQLGLTEPRIYISDLLAHTQYTFEIQAVNGVTDQSPFSPQFASVNITTNQAAPSAVSIMHQVSRTVDSITLSWSQPDQPNGVILDYELQYYEKELSEYNATAIKSPTNTVTVQGLKAGAIYVFQVRARTVAGYGRYSGKMYFQTMTEAEYQTSIKEKLPL
B3: EphB3 ectodomain fused with Fc (Fc fusion, UniProt P54754 30-554)
chain: LEETLMDTKWVTSELAWTSHPESGWEEVSGYDEAMNPIRTYQVCNVRESSQNNWLRTGFIWRREVQRVYVELKFTVRDCNSIPNIPGSCKETFNLFYYEADSDVASASSPFWMENPYVKVDTIAPDESFSRLDAGRVNTKVRSFGPLSKAGFYLAFQDQGACMSLISVRAFYKKCASTTAGFALFPETLTGAEPTSLVIAPGTCIANAVEVSVPLKLYCNGDGEWMVPVGACTCATGHEPAAKESQCRACPPGSYKAKQGEGPCLPCPPNSRTTSPAASICTCHNNFYRADSDSADSACTTVPSPPRGVISNVNETSLILEWSEPRDLGGRDDLLYNVICKKCRGSSGAGGPATCSRCDDNVEFVPRQLGLTERRVHISHLLAHTRYTFEVQAVNGVSGKSPLPPRYAAVNITTNQAAPSEVPTLHLHSSSGSSLTLSWAPPERPNGVILDYEMKYFEKSKGIASTVTSQKNSVQLDGLQPDARYVVQVRARTVAGYGQYSHPAEFETTSERGSGAQQLQEQLPL
B4: EphB6 ectodomain fused with Fc (Fc fusion, UniProt O08644 33-591)
chain: LEEVLLDTTGETSEIGWLTYPPGGWDEVSVLDDQRRLTRTFEACHVAGLPPGSGQDNWLQTHFVERRGAQRAHIRLHFSVRACSSLGVSGGTCRETFTLYYRQADEPDGPDSIAAWHLKRWTKVDTIAADESFPASSSSSSWAVGPHRTGQRVGLQLNVKERSFGPLTQRGFYVAFQDTGACLALVAVKLFSYTCPSVLRAFASFPETQASGAGGASLVAAVGTCVAHAEPEEDGVGGQAGGSPPRLHCNGEGRWMVAVGGCRCQPGHQPARGDKLCQACPEGSYKALAGNVPCSPCPARSHSPDPAAPVCPCLQGFYRASSDPPEAPCTGPPSAPRELWFEVQGSALMLHWRLPQELGGRGDLLFNVVCKECGGHGEPSSGGMCRRCRDEVHFDPRQRGLTESRVLVGGLRAHVPYILEVQAVNGVSELSPDPPQAAAINVSTSHEVPSAVPVMHQVSRAANSITVSWPQPEQTNGNILDYQLRYYDQAEDESHSFTMTSETNTATVTRLSPGHIYGFQVRARTAAGHGPYGGKVYFQTLPQGELSSQLPEKLSLVIG
B5: EphB4 ectodomain fused with Fc (Fc fusion, UniProt P54760 16-539)
chain: LEETLLNTKLETADLKWVTFPQVDGQWEELSGLDEEQHSVRTYEVCDVQRAPGQAHWLRTGWVPRRGAVHVYATLRFTMLECLSLPRAGRSCKETFTVFYYESDADTATALTPAWMENPYIKVDTVAAEHLTRKRPGAEATGKVNVKTLRLGPLSKAGFYLAFQDQGACMALLSLHLFYKKCAQLTVNLTRFPETVPRELVVPVAGSCVVDAVPAPGPSPSLYCREDGQWAEQPVTGCSCAPGFEAAEGNTKCRACAQGTFKPLSGEGSCQPCPANSHSNTIGSAVCQCRVGYFRARTDPRGAPCTTPPSAPRSVVSRLNGSSLHLEWSAPLESGGREDLTYALRCRECRPGGSCAPCGGDLTFDPGPRDLVEPWVVVRGLRPDFTYTFEVTALNGVSSLATGPVPFEPVNVTTDREVPPAVSDIRVTRSSPSSLSLAWAVPRAPSGAVLDYEVKYHEKGAEGPSSVRFLKTSENRAELRGLKRGASYLVQVRARSEAGYGPFGQEHHSQTQLDESEGWREQLA
B6: EphB1 ectodomain fused with Fc (Fc fusion, UniProt P54762 18-540)
chain: B1 chain with S278A
B7: EphB2 ectodomain fused with Fc (Fc fusion, UniProt P29323 19-543)
chain: B2 chain with L104S, N154S, K520Q
B8: EphB3 ectodomain fused with Fc (Fc fusion, UniProt P54753 34-559)
chain: GCRALEETLMDTKWVTSELAWTSHPESGWEEVSGYDEAMNPIRTYQVCNVRESSQNNWLRTGFIWRRDVQRVYVELKFTVRDCNSIPNIPGSCKETFNLFYYEADSDVASASSPFWMENPYVKVDTIAPDESFSRLDAGRVNTKVRSFGPLSKAGFYLAFQDQGACMSLISVRAFYKKCASTTAGFALFPETLTGAEPTSLVIAPGTCIPNAVEVSVPLKLYCNGDGEWMVPVGACTCATGHEPAAKESQCRPCPPGSYKAKQGEGPCLPCPPNSRTTSPAASICTCHNNFYRADSDSADSACTTVPSPPRGVISNVNETSLILEWSEPRDLGGRDDLLYNVICKKCHGAGGASACSRCDDNVEFVPRQLGLTERRVHISHLLAHTRYTFEVQAVNGVSGKSPLPPRYAAVNITTNQAAPSEVPTLRLHSSSGSSLTLSWAPPERPNGVILDYEMKYFEKSEGIASTVTSQMNSVQLDGLRPDARYVVQVRARTVAGYGQYSRPAEFETTSERGSGAQQLQEQLPL
B9: EphB6 ectodomain fused with Fc (Fc fusion, UniProt O15197 32-594)
chain: LEEVLLDTTGETSEIGWLTYPPGGWDEVSVLDDQRRLTRTFEACHVAGAPPGTGQDNWLQTHFVERRGAQRAHIRLHFSVRACSSLGVSGGTCRETFTLYYRQAEEPDSPDSVSSWHLKRWTKVDTIAADESFPSSSSSSSSSSSAAWAVGPHGAGQRAGLQLNVKERSFGPLTQRGFYVAFQDTGACLALVAVRLFSYTCPAVLRSFASFPETQASGAGGASLVAAVGTCVAHAEPEEDGVGGQAGGSPPRLHCNGEGKWMVAVGGCRCQPGYQPARGDKACQACPRGLYKSSAGNAPCSPCPARSHAPNPAAPVCPCLEGFYRASSDPPEAPCTGPPSAPQELWFEVQGSALMLHWRLPRELGGRGDLLFNVVCKECEGRQEPASGGGGTCHRCRDEVHFDPRQRGLTESRVLVGGLRAHVPYILEVQAVNGVSELSPDPPQAAAINVSTSHEVPSAVPVVHQVSRASNSITVSWPQPDQTNGNILDYQLRYYDQAEDESHSFTLTSETNTATVTQLSPGHIYGFQVRARTAAGHGPYGGKVYFQTLPQGELSSQLPERLS

target: EphB4 on the surface of A2780cp20 ovarian cancer cells (human (endogenous in A2780cp20)) (UniProt P54760); experiment: flow cytometry on cells; competition: A2780cp20 cells (1x10^6 cells/mL) co-incubated with EFNB2-Fc (20 nM) and BIDEN-AP (0 to 100 µM) at 25 °C for 1 h; bound EFNB2-Fc probed with phycoerythrin-labeled anti-Fc antibody; only the binder purified

Row | Molecule | binding
1 | EFNB2-Fc (ephrin B2 fused with Fc) (from UniProt P52799 28-229) (Fc fusion) | binds

target: T1, biotinylated BIDEN-AP; experiment: ELISA; biotinylated BIDEN-AP (10 uM) on streptavidin-coated plates; Eph ectodomain-Fc proteins at 2.5 ug/mL in 0.5% BSA in PBS, room temperature, 1 h; detected with anti-Fc antibody coupled to alkaline phosphatase; normalised to EphB4-Fc; both purified
T1 sequence (peptide, D-Tyr at P3; biotin (position not stated)): TNYLFSPNGPIARAW

Row | Molecule | binding
2 | B1 | no binding (tested: 2.5 ug/mL)
3 | B2 | no binding (tested: 2.5 ug/mL)
4 | B3 | no binding (tested: 2.5 ug/mL)
5 | B4 | no binding (tested: 2.5 ug/mL)

target: T1, biotinylated BIDEN-AP; experiment: ELISA; biotinylated BIDEN-AP (10 µM) immobilised on streptavidin-coated 96-well plates; Eph ectodomain-Fc proteins (2.5 µg/mL) in 0.5% BSA in PBS, room temperature, 1 h; anti-Fc antibody coupled to alkaline phosphatase; signals normalized to EphB4-Fc; both purified

Row | Molecule | binding
6 | B5 | binds
7 | B6 | no binding (tested: 2.5 µg/mL)
8 | B7 | no binding (tested: 2.5 µg/mL)
9 | B8 | no binding (tested: 2.5 µg/mL)
10 | B9 | no binding (tested: 2.5 µg/mL)
